In the supplement of paper PMC12067093, “Discovery and optimisation of a covalent ligand for TRIM25 and its application to targeted protein ubiquitination” (Chemical Science, 2025):
The list shows a part of the results.

Compound: CC1Cc2ccccc2N1C(=O)C1CCCN(C1)C(=O)CCl (mixture of isomers) [TRIM25 ligand 11 (diastereomer mixture)]
Experiment: probe-labelled cysteine peptide fold change vs DMSO (competition) (log2 fold change); higher = less target engagement (more negative = stronger competition)
Conditions: THP-1, incubation time: 4 h
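Further: competitive chemoproteomic profiling in live THP-1 cells with an iodoacetamide desthiobiotin (IA-DTB) probe, comparing probe-labelled peptide intensities in compound-treated cells against DMSO-treated controls.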

| Target | probe-labelled cysteine peptide fold change (10 µM) | probe-labelled cysteine peptide fold change (50 µM) |
| --- | --- | --- |
| CLTCL1_P53675_736_YIQAACK (UniProt P53675) | 0.038 | 0.0227 |
| CLTA_P09496_218_LCDFNPK (UniProt P09496) | -0.262 | -0.275 |
| CLNS1A_P54105_73_DRSDCLGEHLYVMVNAK (UniProt P54105) | -0.0291 | -0.193 |
| CLTC_Q00610_1257_EVCFACVDGK (UniProt Q00610) | -0.0168 | 0.0733 |
| CLUH_O75153_588_TFPPDLNFLPVPGEELPEECAR (UniProt O75153) | 0.212 | 0.0614 |
| CIP2A_Q8TCG1_752_DLQITCDSLNK (UniProt Q8TCG1) | -0.0398 | 0.0511 |
| CHD9_Q3L8U1_1257_FSKPDSDRFVFLLCTR (UniProt Q3L8U1) | -0.175 | -0.0129 |
| CLASP2_O75122_976_KDDGDSMCGGPGMSDPR (UniProt O75122) | -0.174 | -0.481 |
| CLTCL1_P53675_918_RDPHLACVAYER (UniProt P53675) | -0.0314 | 0.0856 |
| CIT_O14578_1655_ALCLVDVKK (UniProt O14578) | -0.113 | -0.00528 |
| CLTC_Q00610_1102_CNEPAVWSQLAK (UniProt Q00610) | 0.0548 | -0.00398 |
| CLPTM1_O96005_308_VSFCPLSLWR (UniProt O96005) | 0.134 | 0.102 |
| CHAF1A_Q13111_710_VLQQFAACFLETLPAQEEQTPK (UniProt Q13111) | 0.0507 | 0.0536 |
| CFAP20_Q9Y6A4_61_ITDNDIQSLVLEIEGTNVSTTYITCPADPKK (UniProt Q9Y6A4) | 0.168 | -0.0256 |
| CHD1_O14646_502_GNSCILADEMGLGK (UniProt O14646) | 0.0146 | 0.0867 |
| CES1_P23141_274_PLAEQIAITAGCK (UniProt P23141) | -0.141 | 0.297 |
| CIAO3_Q9H6Q4_270_DVDCVLTTGEVFR (UniProt Q9H6Q4) | 0.0144 | -0.227 |
| CLASP1_Q7Z460_509_CYWGFHSHFSR (UniProt Q7Z460) | 0.286 | 0.256 |
| CLASP2_O75122_129_SLLVAGAAQYDCFFQHLR (UniProt O75122) | -0.222 | 0.139 |
| CLASP1_Q7Z460_1212_ECDIVSR (UniProt Q7Z460) | -0.0418 | -0.0939 |
| CHURC1_Q8WUH1_88_SLKEEDGEEIVTYDHLCK (UniProt Q8WUH1) | -0.0858 | -0.00733 |

2 entries from above, bar-delimited.
Target | probe-labelled cysteine peptide fold change (10 µM) | probe-labelled cysteine peptide fold change (50 µM)
CIP2A_Q8TCG1_752_DLQITCDSLNK (UniProt Q8TCG1) | -0.0398 | 0.0511
CHD9_Q3L8U1_1257_FSKPDSDRFVFLLCTR (UniProt Q3L8U1) | -0.175 | -0.0129

Later entries.

| Target | probe-labelled cysteine peptide fold change (10 µM) | probe-labelled cysteine peptide fold change (50 µM) |
| --- | --- | --- |
| CHD1L_Q86WJ1_123_FAPGLSCVTYAGDK (UniProt Q86WJ1) | 0.329 | 0.29 |
| CHML_P26374_366_NFLQCLGR (UniProt P26374) | -0.0875 | 0.247 |
| CHD4_Q14839_1594_STAPETAIECTQAPAPASEDEK (UniProt Q14839) | 0.0047 | -0.0977 |
| CLTC_Q00610_328_KGQVLSVCVEEENIIPYITNVLQNPDLALR (UniProt Q00610) | -0.266 | 0.239 |
| CLTC_Q00610_934_GQCDLELINVCNENSLFK (UniProt Q00610) | 0.0433 | -0.109 |
| CLEC11A_Q9Y240_319_LYYVCEFPF (UniProt Q9Y240) | -0.116 | 0.0121 |
| CISD2_Q8N5K1_92_VVNEINIEDLCLTK (UniProt Q8N5K1) | -0.12 | -0.0153 |
| CIAPIN1_Q6FI81_116_LCSALTLSGLVEVK (UniProt Q6FI81) | -0.104 | -0.161 |
| CHTF18_Q8WVB6_825_LEPNVEELCR (UniProt Q8WVB6) | 0.0127 | -0.293 |
| CHAMP1_Q96JM3_16_LECDHCSFR (UniProt Q96JM3) | 0.26 | 0.118 |
| CIZ1_Q9ULV3_631_LGEIQHMSQACLLSLLPVPR (UniProt Q9ULV3) | 0.111 | -0.097 |
| CLIC1_O00299_59_LCPGGQLPFLLYGTEVHTDTNK (UniProt O00299) | 0.214 | 0.0937 |
| CLP1_Q92989_338_VGAPTIPDSCLPLGMSQEDNQLK (UniProt Q92989) | 0.0732 | 0.206 |
| CLIP2_Q9UDT6_525_RGEIEELQQCLLHSGPPPPDHPDAAEILR (UniProt Q9UDT6) | -0.0137 | 0.285 |
| CHURC1_Q8WUH1_91_NCHHVIAR (UniProt Q8WUH1) | 0.0607 | 0.145 |
| CIAO2A_Q9H5X1_155_EIVEQCVLEPD (UniProt Q9H5X1) | -0.218 | 0.0683 |
| CKAP2_Q8WWK9_674_ETDAFVCRPNAALCR (UniProt Q8WWK9) | -0.139 | -0.0785 |
| CIAO1_O76071_123_SVAWAPSGNLLATCSR (UniProt O76071) | 0.00384 | 0.0653 |
| CKAP5_Q14008_1019+1026_STPTDLILCVPHLYSCLEDR (UniProt Q14008) | 0.47 | 0.0623 |
| CLCN3_P51790_733_VCFAQHTPSLPAESPRPLK (UniProt P51790) | 0.0602 | 0.0245 |
| CHCHD3_Q9NX63_183_RYESHPVCADLQAK (UniProt Q9NX63) | -0.124 | 0.11 |

| Target | probe-labelled cysteine peptide fold change (10 µM) | probe-labelled cysteine peptide fold change (50 µM) |
| --- | --- | --- |
| CHORDC1_Q9UHD1_176_TYQGLESLEEVCVYHSGVPIFHEGMK (UniProt Q9UHD1) | -0.00431 | -0.024 |
| CLCC1_Q96S66_60+67_DVSPDLSCADEISECYHK (UniProt Q96S66) | 0.0233 | -0.0365 |
| CHD4_Q14839_1019_CCNHPYLFPVAAMEAPK (UniProt Q14839) | -0.112 | -0.0204 |
| CHM_P24386_102_TIQHVEVFCYASQDLHEDVEEAGALQK (UniProt P24386) | 0.18 | -0.164 |
| CLIC1_O00299_178_FLDGNELTLADCNLLPK (UniProt O00299) | -0.0126 | 0.041 |
| CHM_P24386_364_NFLHCLGR (UniProt P24386) | -0.0139 | 0.291 |
| CHTF18_Q8WVB6_825_LEPNVEELCRFPELPAR (UniProt Q8WVB6) | 0.0641 | -0.102 |
| CHPF2_Q9P2E5_223_YCHGGFGYLLSR (UniProt Q9P2E5) | -0.0435 | 0.149 |
| CHD8_Q9HCK8_1947_HGVSQTDCNIMQDPDFSFLAAR (UniProt Q9HCK8) | -0.147 | -0.198 |
| CHORDC1_Q9UHD1_24_FDPETNSDDACTYHPGVPVFHDALK (UniProt Q9UHD1) | -0.106 | -0.11 |
| CHORDC1_Q9UHD1_59_RTTDFSDFLSIVGCTK (UniProt Q9UHD1) | -0.222 | -0.21 |
| CFAP20_Q9Y6A4_119_VKPFICTMPMR (UniProt Q9Y6A4) | -0.021 | -0.115 |
| CLTC_Q00610_1528_QSVELCK (UniProt Q00610) | 0.0372 | 0.0186 |
| CHURC1_Q8WUH1_88_EEDGEEIVTYDHLCK (UniProt Q8WUH1) | 0.0606 | 0.249 |
| CINP_Q9BW66_92_LCEELQATLDGLTK (UniProt Q9BW66) | 0.245 | 0.246 |
| CLPX_O76031_586_LLLEPMFEVPNSDIVCVEVDK (UniProt O76031) | 0.0987 | -0.101 |
| CLASP1_Q7Z460_1423_AAEEAASTLASSIHPEQCIK (UniProt Q7Z460) | 0.171 | -0.00926 |
| CLTC_Q00610_491_VIQCFAETGQVQK (UniProt Q00610) | -0.0337 | 0.0523 |
| CLSTN1_O94985_261_ISIKPTCTPGWQGWNNR (UniProt O94985) | 0.139 | 0.163 |
| CHD1_O14646_1417_TFSICK (UniProt O14646) | -0.0958 | 0.0405 |
| CHAMP1_Q96JM3_592_CDILVQEELLASPK (UniProt Q96JM3) | -0.0146 | -0.102 |

| Target | probe-labelled cysteine peptide fold change (10 µM) | probe-labelled cysteine peptide fold change (50 µM) |
| --- | --- | --- |
| CHORDC1_Q9UHD1_86_ELCELKPK (UniProt Q9UHD1) | -0.0689 | -0.154 |
| CHERP_Q8IWX8_190_SPPHCELMAGHLR (UniProt Q8IWX8) | -0.011 | -0.113 |
| CIP2A_Q8TCG1_615_DQICDVR (UniProt Q8TCG1) | -0.0238 | -0.103 |
| CHERP_Q8IWX8_69_LALEQQQLICK (UniProt Q8IWX8) | 0.0811 | 0.00437 |
| CIT_O14578_1655_ALCLVDVK (UniProt O14578) | 0.171 | 0.38 |
| CIAPIN1_Q6FI81_249+251_NCTCGLAEELEK (UniProt Q6FI81) | -0.0666 | -0.108 |
| CLUH_O75153_333_IATPFQVYSWTAPQAEHAMDCVR (UniProt O75153) | -0.222 | -0.317 |
| CHCHD3_Q9NX63_204_CSALATQYMHCVNHAK (UniProt Q9NX63) | -0.00551 | 0.0693 |
| CLEC11A_Q9Y240_177_LEGCLK (UniProt Q9Y240) | 0.182 | 0.258 |
| CHAF1A_Q13111_878_SAGSMCITQFMK (UniProt Q13111) | -0.128 | -0.316 |
| CLK2_P49760_180_VVQCVDHR (UniProt P49760) | 0.172 | 0.129 |
| CLIC1_O00299_178_KFLDGNELTLADCNLLPK (UniProt O00299) | -0.123 | 0.000904 |
| CLTC_Q00610_1565_RECFGACLFTCYDLLRPDVVLETAWR (UniProt Q00610) | 0.367 | 0.182 |
| CIAPIN1_Q6FI81_92_ILRPGGCLFLK (UniProt Q6FI81) | -0.0606 | 0.00519 |
| CFD_P00746_148_VDRDVAPGTLCDVAGWGIVNHAGR (UniProt P00746) | 0.0362 | -0.395 |
| CHPF_Q8IZ52_266_MLLQQLRPHLEGCR (UniProt Q8IZ52) | 0.176 | 0.00392 |
| CHKB_Q9Y259_282_GFDIGNHFCEWVYDYTHEEWPFYK (UniProt Q9Y259) | 0.315 | 0.0979 |
| CES1_P23141_390_SYPLVCIAK (UniProt P23141) | -0.0706 | 0.0945 |
| CHD2_O14647_365_VSPEDVEYFNCQQELASELNK (UniProt O14647) | 0.063 | -0.0106 |
| CIAPIN1_Q6FI81_285_CASCPYLGMPAFKPGEK (UniProt Q6FI81) | -0.127 | -0.178 |
| CKB_P12277_254_FCTGLTQIETLFK (UniProt P12277) | 0.0398 | -0.0625 |

Exported as comma-separated lines: entries from further up.
Target,probe-labelled cysteine peptide fold change (10 µM),probe-labelled cysteine peptide fold change (50 µM)
CLTC_Q00610_1257_EVCFACVDGK (UniProt Q00610),-0.0168,0.0733
CLIC1_O00299_59_LCPGGQLPFLLYGTEVHTDTNK (UniProt O00299),0.214,0.0937
CIAO2A_Q9H5X1_155_EIVEQCVLEPD (UniProt Q9H5X1),-0.218,0.0683
